Test results taken from patent US20230337677A1, “ARYL AND PYRIDYL AMIDE PESTICIDES AND COMPOSITIONS THEREOF” (University of Florida Research Foundation, Incorporated, priority 2019, published 2023).

Tests used:
[1] = tested on: Aedes aegypti mosquitoes, pyrethroid-resistant Puerto Rico strain; assay: Vapor repellency glass tube assay (1 h), resistant strain; format: in vivo; conditions: value in brackets after the second EC50
[2] = tested on: Aedes aegypti mosquitoes, pyrethroid-resistant Puerto Rico strain; assay: Vapor toxicity (24 h lethality under constant exposure in glass tubes), resistant strain; conditions: value in brackets after the second LC50

Structure (SMILES) | Resistance ratio (RR) of 1 h Repellency EC50 [1] | Resistance ratio (RR)=24 h LC50 PR/24 h LC50 OR [2]
C/C=C/C1C(C(=O)OCc2c(F)c(F)c(COC)c(F)c2F)C1(C)C (centres unmarked) [Metofluthrin, metofluthrin] | (40) | (51)
CCN(CC)C(=O)c1cccc(C)c1 [DEET, N,N-diethyl-m-toluamide, reference compound] | (2.3) | –
CC1(C)[C@H](C=C(Cl)Cl)[C@H]1C(=O)OCc1c(F)c(F)cc(F)c1F [Transfluthrin, transfluthrin] | (4.6) | (48)
